From paper PMC7481392
Results are given in words; binding and its absence hold for the method and conditions named. In cells and extracts the contact can be indirect. Some binding calls cover weakened binding; strength is not graded here. Where a sequence is shown, tags or fusion partners need not be part of it.

T1: MltG with a C-terminal HA tag (from pACYC184-MltG-HA) (E. coli) (UniProt P28306)
T1 sequence: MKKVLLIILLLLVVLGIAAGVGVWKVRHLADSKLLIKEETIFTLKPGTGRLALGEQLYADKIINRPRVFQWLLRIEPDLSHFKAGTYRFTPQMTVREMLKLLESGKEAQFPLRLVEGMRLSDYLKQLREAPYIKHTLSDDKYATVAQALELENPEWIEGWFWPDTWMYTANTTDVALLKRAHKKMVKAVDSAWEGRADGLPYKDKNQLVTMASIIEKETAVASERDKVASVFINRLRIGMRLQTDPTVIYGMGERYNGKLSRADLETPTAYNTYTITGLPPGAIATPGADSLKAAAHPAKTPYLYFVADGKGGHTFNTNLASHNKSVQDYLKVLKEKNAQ


Key:
[1] = target: T1, MltG with a C-terminal HA tag (from pACYC184-MltG-HA) (E. coli); test: co-IP; K455A-Prc-His6 and MltG-HA coexpressed in E. coli; lysate in 20 mM Tris-HCl, 200 mM NaCl, pH 7.5, 2% Triton X-100; IP with anti-His or anti-HA antibody and protein G magnetic beads, 4°C; immunoblot with anti-His and anti-HA
[2] = target: K455A-Prc, catalytically inactive Prc mutant, C-terminally His6-tagged (E. coli) (UniProt P23865); test: as above

Row | binding [1] | binding [2] | Binder
1 | binds | – | K455A-Prc, catalytically inactive Prc mutant, C-terminally His6-tagged (enzyme, UniProt P23865 23-682, Dylight 549 NHS ester on amines (array assay only)) VEDITRADQIPVLKEETQHATVSERVTSRFTRSHYRQFDLDQAFSAKIFDRYLNLLDYSHNVLLASDVEQFAKKKTELGDELRSGKLDVFYDLYNLAQKRRFERYQYALSVLEKPMDFTGNDTYNLDRSKAPWPKNEAELNALWDSKVKFDELSLKLTGKTDKEIRETLTRRYKFAIRRLAQTNSEDVFSLAMTAFAREIDPHTNYLSPRNTEQFNTEMSLSLEGIGAVLQMDDDYTVINSMVAGGPAAKSKAISVGDKIVGVGQTGKPMVDVIGWRLDDVVALIKGPKGSKVRLEILPAGKGTKTRTVTLTRERIRLEDRAVKMSVKTVGKEKVGVLDIPGFYVGLTDDVKVQLQKLEKQNVSSVIIDLRSNGGGALTEAVSLSGLFIPAGPIVQVRDNNGKVREDSDTDGQVFYKGPLVVLVDRFSASASEIFAAAMQDYGRALVVGEPTFGAGTVQQYRSLNRIYDQMLRPEWPALGSVQYTIQKFYRVNGGSTQRKGVTPDIIMPTGNEETETGEKFEDNALPWDSIDAATYVKSGDLTAFEPELLKEHNARIAKDPEFQNIMKDIARFNAMKDKRNIVSLNYAVREKENNEDDATRLARLNERFKREGKPELKKLDDLPKDYQEPDPYLDETVNIALDLAKLEKARPAEQPAPVK
2 | – | binds | MltG with a C-terminal HA tag (from pACYC184-MltG-HA) (protein, UniProt P28306 1-340) MKKVLLIILLLLVVLGIAAGVGVWKVRHLADSKLLIKEETIFTLKPGTGRLALGEQLYADKIINRPRVFQWLLRIEPDLSHFKAGTYRFTPQMTVREMLKLLESGKEAQFPLRLVEGMRLSDYLKQLREAPYIKHTLSDDKYATVAQALELENPEWIEGWFWPDTWMYTANTTDVALLKRAHKKMVKAVDSAWEGRADGLPYKDKNQLVTMASIIEKETAVASERDKVASVFINRLRIGMRLQTDPTVIYGMGERYNGKLSRADLETPTAYNTYTITGLPPGAIATPGADSLKAAAHPAKTPYLYFVADGKGGHTFNTNLASHNKSVQDYLKVLKEKNAQ
